Reference: PubChem BioAssay AID2685 (National Center for Advancing Translational Sciences (NCATS), 2010)
In all, about 320,000 compounds went through this assay and about 2,100 (0.66%) were called active. The inconclusive results got no clear call from the source; some entries with a clear call stand among them for comparison. Calls come from the whole dose curve; as a rule, active = well fitted inhibition curve with a large enough effect in the signal ratio, with a control signal flat (not every such curve was filed as active); inconclusive = small, poorly fitted or top-dose-only effect, or effect the other way, or a change in a side signal; inactive = flat fitted curve, though single readings scatter; the % refers to the signal ratio. Potencies of inconclusive entries are doubtful fits and often do not repeat.

Test: qHTS Assay for Lipid Storage Modulators in Drosophila S3 Cells
Settings: BODIPY lipid droplet fluorescence, 18-24 h, cells fed with added oleic acid; lipid storage change, negative = inhibition: at 46.1 µM (top of the series) unless noted
Outline: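 Laser-scanning cytometry quantifies lipid droplet accumulation (500–530 nm total intensity; droplet/cell object ratio) in oleic acid-fed (400 uM added) Drosophila S3 cells treated with a concentration series. 20 uM Triacsin C defined 100% inhibition.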
% is set by controls: 0 for no effect and ±100 for the full control effect; potency is the fitted concentration of half-maximal effect.

Potency, inconclusive:
Cc1cc(C)c2c(=O)[nH]c(SCC(=O)c3ccc(F)c(C)c3)nc2n1 2.06 µM [falling, full curve]
CC(=O)N1CCc2c(sc3c2c(=O)n(-c2ccccc2)c(=O)n3CC(=O)NCC2CCCO2)C1 (stereo unspecified) 0.651 µM [activator, partial curve, poor fit]
CC(O)c1ccc2c(c1)OCCOCCN(C)CCOCCO2 (stereo unspecified) 29.1 µM [falling, single point]
COc1ccc(C(=O)N2CCC(NC(=O)C(Cc3ccccc3OC)NC(C)=O)CC2)cc1 (stereo unspecified) 3.26 µM [activator, full curve]
Cc1nc2ccc(C(=O)OCc3nnc(-c4ccccc4)o3)cc2nc1C 29.1 µM [falling, single point]
CCOc1ccc(OCC(=O)N2CCOCC2)cc1 6.51 µM [falling, single point]
c1ccc(C[n+]2cccc3c4ccccc4ccc32)cc1 8.2 µM [falling, single point]

Lipid storage change, negative = inhibition, inconclusive:
COc1cc2c(cc1OC)CN(C(=O)Cc1c(F)cccc1Cl)CC2 13.9%
NC(=O)[C@@H]1CCCN1C(=O)c1ccc2oc(CCc3ccccc3)nc2c1 21.1%
O=C(Cc1ccc(Cl)cc1)Nc1ccc(N2CCN(C(=O)c3ccco3)CC2)c(Cl)c1 146%
COc1cccc(OCC(=O)NNC(=S)Nc2ccc(Cl)cc2Cl)c1 -1.66%
N#CC(C(=O)NC1CC1)c1nc2ccccc2nc1N1CCCC1 (stereo unspecified) 19.6%
O=C(COc1ccccc1)Nc1nc2cc3c(cc2s1)OCCO3 -16.4%
CC(C)CN(C(=O)CCNC(=O)c1ccccc1Cl)C1CCS(=O)(=O)C1 (stereo unspecified) -0.131%
Cc1ccccc1S(=O)(=O)N1[C@@H](c2cccc(Cl)c2)C(C(=O)O)=CC[C@H]1c1ccc(Cl)cc1 -12.5%
O=C(CCC(=O)OCc1cccc([N+](=O)[O-])c1)Nc1ccccc1Cl -20%
N/C(=N\OC(=O)c1cccc(C(F)(F)F)c1)c1cnccn1 3.21%
Cc1cc2ccccn2c1C(=O)c1cccc(S(=O)(=O)N2CCOCC2)c1 -10.2%
Cn1c(N)c(C(=O)COC(=O)c2cc(C3CC3)nc3ccccc23)c(=O)n(C)c1=O 6.7%
CC1CCN(c2ccc(NC(=O)c3cccnc3Cl)cc2)CC1 -6.7%

For convenience, 2 of the compounds above.
Lipid storage change, negative = inhibition, inconclusive:
O=C(COc1ccccc1)Nc1nc2cc3c(cc2s1)OCCO3 -16.4%
CC(C)CN(C(=O)CCNC(=O)c1ccccc1Cl)C1CCS(=O)(=O)C1 (stereo unspecified) -0.131%

Next part:

Lipid storage change, negative = inhibition, inactive:
Fc1ccccc1C(c1nnnn1C1CCCC1)N1CCN(Cc2ccccc2)CC1 (stereo unspecified) -1.04%
